Experimental data: patent US20060257938A1, “Method of screening for drugs that block ligand binding to a lipid binding protein” (priority 2005, published 2006)

Assay: Baseline fluorescence ratio Ro of probe in absence of analyte
Conditions: baseline fluorescence ratio of probe

Molecule | Ro
106W, 72A (protein, listed as Rattus norvegicus, PEPTIDE (1)...(131) wild-type rat intestinal fatty acid binding protein) AFDGTWKVDRNENYEKFMEKMGINVVKRKLGAHDNLKLTITQEGNKFTVKESSNFRNIDVVFELGVDFAYSAADGTELTGTWTMEGNKLVGKFKRVDNGKELIAVWEISGNELIQTYTYEGVEAKRIFKKE | 0.241

Same assay, conditions: baseline fluorescence ratio of probe, no fatty acid

Molecule | AvgOfRo
106L3, 72A (protein, listed as Rattus norvegicus, PEPTIDE (1)...(131) wild-type rat intestinal fatty acid binding protein) AFDGTWKVDRNENYEKFMEKMGINVVKRKLGAHDNLKLTITQEGNKFTVKESSNFRNIDVVFELGVDFAYSAADGTELTGTWTMEGNKLVGKFKRVDNGKELIAVLEISGNELIQTYTYEGVEAKRIFKKE | 0.28
115D1, 72A (protein, listed as Rattus norvegicus, PEPTIDE (1)...(131) wild-type rat intestinal fatty acid binding protein) AFDGTWKVDRNENYEKFMEKMGINVVKRKLGAHDNLKLTITQEGNKFTVKESSNFRNIDVVFELGVDFAYSAADGTELTGTWTMEGNKLVGKFKRVDNGKELIAVREISGNELIDTYTYEGVEAKRIFKKE | 0.16
115A1, 72A (protein, listed as Rattus norvegicus, PEPTIDE (1)...(131) wild-type rat intestinal fatty acid binding protein) AFDGTWKVDRNENYEKFMEKMGINVVKRKLGAHDNLKLTITQEGNKFTVKESSNFRNIDVVFELGVDFAYSAADGTELTGTWTMEGNKLVGKFKRVDNGKELIAVREISGNELIATYTYEGVEAKRIFKKE | 0.16
115H1, 72A (protein, listed as Rattus norvegicus, PEPTIDE (1)...(131) wild-type rat intestinal fatty acid binding protein) AFDGTWKVDRNENYEKFMEKMGINVVKRKLGAHDNLKLTITQEGNKFTVKESSNFRNIDVVFELGVDFAYSAADGTELTGTWTMEGNKLVGKFKRVDNGKELIAVREISGNELIHTYTYEGVEAKRIFKKE | 0.15
115L3, 72A (protein, listed as Rattus norvegicus, PEPTIDE (1)...(131) wild-type rat intestinal fatty acid binding protein) AFDGTWKVDRNENYEKFMEKMGINVVKRKLGAHDNLKLTITQEGNKFTVKESSNFRNIDVVFELGVDFAYSAADGTELTGTWTMEGNKLVGKFKRVDNGKELIAVREISGNELILTYTYEGVEAKRIFKKE | 0.17
115K3, 72A (protein, listed as Rattus norvegicus, PEPTIDE (1)...(131) wild-type rat intestinal fatty acid binding protein) AFDGTWKVDRNENYEKFMEKMGINVVKRKLGAHDNLKLTITQEGNKFTVKESSNFRNIDVVFELGVDFAYSAADGTELTGTWTMEGNKLVGKFKRVDNGKELIAVREISGNELIKTYTYEGVEAKRIFKKE | 0.16
115S1, 72A (protein, listed as Rattus norvegicus, PEPTIDE (1)...(131) wild-type rat intestinal fatty acid binding protein) AFDGTWKVDRNENYEKFMEKMGINVVKRKLGAHDNLKLTITQEGNKFTVKESSNFRNIDVVFELGVDFAYSAADGTELTGTWTMEGNKLVGKFKRVDNGKELIAVREISGNELISTYTYEGVEAKRIFKKE | 0.39
106Q, 72A (protein, listed as Rattus norvegicus, PEPTIDE (1)...(131) wild-type rat intestinal fatty acid binding protein) AFDGTWKVDRNENYEKFMEKMGINVVKRKLGAHDNLKLTITQEGNKFTVKESSNFRNIDVVFELGVDFAYSAADGTELTGTWTMEGNKLVGKFKRVDNGKELIAVQEISGNELIQTYTYEGVEAKRIFKKE | 0.24
106S2, 72A (protein, listed as Rattus norvegicus, PEPTIDE (1)...(131) wild-type rat intestinal fatty acid binding protein) AFDGTWKVDRNENYEKFMEKMGINVVKRKLGAHDNLKLTITQEGNKFTVKESSNFRNIDVVFELGVDFAYSAADGTELTGTWTMEGNKLVGKFKRVDNGKELIAVSEISGNELIQTYTYEGVEAKRIFKKE | 0.26
115N2, 72A (protein, listed as Rattus norvegicus, PEPTIDE (1)...(131) wild-type rat intestinal fatty acid binding protein) AFDGTWKVDRNENYEKFMEKMGINVVKRKLGAHDNLKLTITQEGNKFTVKESSNFRNIDVVFELGVDFAYSAADGTELTGTWTMEGNKLVGKFKRVDNGKELIAVREISGNELINTYTYEGVEAKRIFKKE | 0.16
115T3, 72A (protein, listed as Rattus norvegicus, PEPTIDE (1)...(131) wild-type rat intestinal fatty acid binding protein) AFDGTWKVDRNENYEKFMEKMGINVVKRKLGAHDNLKLTITQEGNKFTVKESSNFRNIDVVFELGVDFAYSAADGTELTGTWTMEGNKLVGKFKRVDNGKELIAVREISGNELITTYTYEGVEAKRIFKKE | 0.21
115P1, 72A (protein, listed as Rattus norvegicus, PEPTIDE (1)...(131) wild-type rat intestinal fatty acid binding protein) AFDGTWKVDRNENYEKFMEKMGINVVKRKLGAHDNLKLTITQEGNKFTVKESSNFRNIDVVFELGVDFAYSAADGTELTGTWTMEGNKLVGKFKRVDNGKELIAVREISGNELIPTYTYEGVEAKRIFKKE | 0.27
115E1, 72A (protein, listed as Rattus norvegicus, PEPTIDE (1)...(131) wild-type rat intestinal fatty acid binding protein) AFDGTWKVDRNENYEKFMEKMGINVVKRKLGAHDNLKLTITQEGNKFTVKESSNFRNIDVVFELGVDFAYSAADGTELTGTWTMEGNKLVGKFKRVDNGKELIAVREISGNELIETYTYEGVEAKRIFKKE | 0.22
113M, 72A (protein, listed as Rattus norvegicus, PEPTIDE (1)...(131) wild-type rat intestinal fatty acid binding protein) AFDGTWKVDRNENYEKFMEKMGINVVKRKLGAHDNLKLTITQEGNKFTVKESSNFRNIDVVFELGVDFAYSAADGTELTGTWTMEGNKLVGKFKRVDNGKELIAVREISGNEMIQTYTYEGVEAKRIFKKE | 0.18
106Y1, 72A (protein, listed as Rattus norvegicus, PEPTIDE (1)...(131) wild-type rat intestinal fatty acid binding protein) AFDGTWKVDRNENYEKFMEKMGINVVKRKLGAHDNLKLTITQEGNKFTVKESSNFRNIDVVFELGVDFAYSAADGTELTGTWTMEGNKLVGKFKRVDNGKELIAVYEISGNELIQTYTYEGVEAKRIFKKE | 0.17
115I3, 72A (protein, listed as Rattus norvegicus, PEPTIDE (1)...(131) wild-type rat intestinal fatty acid binding protein) AFDGTWKVDRNENYEKFMEKMGINVVKRKLGAHDNLKLTITQEGNKFTVKESSNFRNIDVVFELGVDFAYSAADGTELTGTWTMEGNKLVGKFKRVDNGKELIAVREISGNELIITYTYEGVEAKRIFKKE | 0.24
102A, 72A (protein, listed as Rattus norvegicus, PEPTIDE (1)...(131) wild-type rat intestinal fatty acid binding protein) AFDGTWKVDRNENYEKFMEKMGINVVKRKLGAHDNLKLTITQEGNKFTVKESSNFRNIDVVFELGVDFAYSAADGTELTGTWTMEGNKLVGKFKRVDNGKEAIAVREISGNELIQTYTYEGVEAKRIFKKE | 0.24
115F1, 72A (protein, listed as Rattus norvegicus, PEPTIDE (1)...(131) wild-type rat intestinal fatty acid binding protein) AFDGTWKVDRNENYEKFMEKMGINVVKRKLGAHDNLKLTITQEGNKFTVKESSNFRNIDVVFELGVDFAYSAADGTELTGTWTMEGNKLVGKFKRVDNGKELIAVREISGNELIFTYTYEGVEAKRIFKKE | 0.23
106V1, 72A (protein, listed as Rattus norvegicus, PEPTIDE (1)...(131) wild-type rat intestinal fatty acid binding protein) AFDGTWKVDRNENYEKFMEKMGINVVKRKLGAHDNLKLTITQEGNKFTVKESSNFRNIDVVFELGVDFAYSAADGTELTGTWTMEGNKLVGKFKRVDNGKELIAVVEISGNELIQTYTYEGVEAKRIFKKE | 0.30
106N1, 72A (protein, listed as Rattus norvegicus, PEPTIDE (1)...(131) wild-type rat intestinal fatty acid binding protein) AFDGTWKVDRNENYEKFMEKMGINVVKRKLGAHDNLKLTITQEGNKFTVKESSNFRNIDVVFELGVDFAYSAADGTELTGTWTMEGNKLVGKFKRVDNGKELIAVNEISGNELIQTYTYEGVEAKRIFKKE | 0.24
106T2, 72A (protein, listed as Rattus norvegicus, PEPTIDE (1)...(131) wild-type rat intestinal fatty acid binding protein) AFDGTWKVDRNENYEKFMEKMGINVVKRKLGAHDNLKLTITQEGNKFTVKESSNFRNIDVVFELGVDFAYSAADGTELTGTWTMEGNKLVGKFKRVDNGKELIAVTEISGNELIQTYTYEGVEAKRIFKKE | 0.26
115R1, 72A (protein, listed as Rattus norvegicus, PEPTIDE (1)...(131) wild-type rat intestinal fatty acid binding protein) AFDGTWKVDRNENYEKFMEKMGINVVKRKLGAHDNLKLTITQEGNKFTVKESSNFRNIDVVFELGVDFAYSAADGTELTGTWTMEGNKLVGKFKRVDNGKELIAVREISGNELIRTYTYEGVEAKRIFKKE | 0.40
106W, 72A (protein, listed as Rattus norvegicus, PEPTIDE (1)...(131) wild-type rat intestinal fatty acid binding protein) AFDGTWKVDRNENYEKFMEKMGINVVKRKLGAHDNLKLTITQEGNKFTVKESSNFRNIDVVFELGVDFAYSAADGTELTGTWTMEGNKLVGKFKRVDNGKELIAVWEISGNELIQTYTYEGVEAKRIFKKE | 0.24
